Source: patent US11986557B2, “Stealth nanoparticles” (HOWARD UNIVERSITY, priority 2018, dated 2024)
At least one structure is not confirmed: it was looked up by name or label, or the drawing left a doubt.

Columns and labels:
SKBR3 = experiment: In vitro cytotoxicity studies, SKBR3; type: cell-based, human
Experimental: (§1) In vitro cytotoxicity studies were conducted to determine the cytotoxic effect of paclitaxel (as a free drug/not in nanoparticle), 17AAG (free drug), paclitaxel+17AAG combination (as free drugs), and paclitaxel+17AAG combination loaded nanoparticles on two human breast cancer cell lines, SKBR3 and MCF7.
(§2) In preparation of the drug combination treatment, one part of each drug was halved and combined, such that each drug in the combination treatment contained half the concentration of their single drug counterparts. This means that the paclitaxel concentration in the combination treatment is 50% of the paclitaxel (single drug) treatment. In other words, the ratio of the concentration in the single drug to its respective concentration in the combination is 2:1. Also, the drug concentration ratio within the combination (paclitaxel: 17AAG) was approximately 1:1.
(§3) For 5 days of assaying, three plates were treated for each day. The first was treated with paclitaxel solution (single drug) and paclitaxel/17AAG combination solution and second with 17AAG solution (single drug) and paclitaxel/17AAG combination solution. The last plate was treated with the combination drug loaded nanoparticle solution and paclitaxel/17AAG combination solution (free drug).

MCF7 = experiment: In vitro cytotoxicity studies, MCF7; type: cell-based, human
Experimental: as §1, §2, §3

[1] = high concentrations (100 nM and 100 nM), 120 hrs

## C=CCNC1=C2C[C@@H](C)C[C@H](OC)[C@H](O)[C@@H](C)/C=C(\C)[C@H](OC(N)=O)[C@@H](OC)/C=C\C=C(/C)C(=O)NC(=CC1=O)C2=O [Formulation 17AAG, 17 allylamino, 17 demethoxygeldanamycin]
SKBR3
  Effectiveness compared to paclitaxel alone or in combination with paclitaxel: not as effective
SKBR3; [1]
  Cell viability at high concentrations: greatly reduce cell viability
MCF7
  Effectiveness compared to paclitaxel alone or in combination with paclitaxel: not as effective
MCF7; [1]
  Cell viability at high concentrations: greatly reduce cell viability
